In test [1] the test system is ReNCell VM. The test can be described thus: neuronal differentiation score (DCX+ cell fraction vs untreated, manual image score) (score (-3 to 3)); higher = more neuronal differentiation. To be noted: 2 uM, 2 weeks.
The subject of test [2] is ReNCell VM. The test can be described thus: dopaminergic neuron differentiation score (TH+ cell fraction vs untreated, manual image score) (score (0 to 3)); higher = more TH+ dopaminergic neuron differentiation. The settings on record: 2 uM, 4 weeks, BDNF 10 ng/ml + GDNF 10 ng/ml.

Structures are written as SMILES. The list shows a part of the results. This data set is noisy: repeats of one test often differ as much as different tests do.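 ReNCell VM, a human fetal ventral-midbrain neural progenitor line, was differentiated without mitogens. Blinded raters scored images stained for doublecortin (early neurons) or tyrosine hydroxylase (dopaminergic neurons) against untreated wells (0 = no change). Scores were averaged across repeats and both raters, and compounds averaging 2 or more were selected as hits for retesting.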

`C=CCCCCCCCCC(=O)[O-].C=CCCCCCCCCC(=O)[O-].[Zn+2]`: in the test on ReNCell VM [1] (library: Spectrum), the neuronal differentiation score was inactive: 0. In the test on ReNCell VM [2] (library: Spectrum), the “dopaminergic neuron differentiation score” value was inactive: 0.

For `Nc1[nH]nc2nnc(-c3c(-c4ccccc4)nn4ccccc34)cc12`, the neuronal differentiation score in the test with ReNCell VM [1] (library: Tocriscreen) was inactive: 0. Besides, the “dopaminergic neuron differentiation score” value in the test with ReNCell VM [2] (library: Tocriscreen) is inactive: 1.

Regarding `O=C(O)Cc1ccccc1Nc1c(Cl)cccc1Cl`, the neuronal differentiation score in the test on ReNCell VM [1] (library: Spectrum) was inactive: 0. Moreover, the “dopaminergic neuron differentiation score” value in the test with ReNCell VM [2] (library: Spectrum) is inactive: 0.

With `C[C@H](N[C@@H](CCc1ccccc1)C(=O)O)C(=O)N1CCC[C@H]1C(=O)O`, the neuronal differentiation score in the test with ReNCell VM [1] (library: Spectrum) was inactive: 0. Also, the “dopaminergic neuron differentiation score” value in the test on ReNCell VM [2] (library: Spectrum) was inactive: 0.

On to `CCC[C@@H]1C[C@@H](C(=O)N[C@@H]([C@H]2O[C@H](SC)[C@H](O)[C@@H](O)[C@H]2O)[C@@H](C)O)N(C)C1`, for which the neuronal differentiation score in the test with ReNCell VM [1] (library: Spectrum) is inactive: 0. The “dopaminergic neuron differentiation score” value in the test on ReNCell VM [2] (library: Spectrum) is inactive: 0.

As to `C=C(NC(=O)C(=C)NC(=O)c1csc(C2=N[C@@H]3c4csc(n4)[C@H]4NC(=O)c5csc(n5)[C@H]([C@](C)(O)[C@@H](C)O)NC(=O)[C@H]5CSC(=N5)/C(=C/C)NC(=O)[C@H]([C@@H](C)O)NC(=O)c5csc(n5)[C@]3(CC2)NC(=O)[C@H](C)NC(=O)C(=C)NC(=O)[C@H](C)NC(=O)[C@H]([C@@H](C)CC)N[C@@H]2C=Cc3c([C@H](C)O)cc(nc3[C@H]2O)C(=O)O[C@@H]4C)n1)C(N)=O`, the neuronal differentiation score with ReNCell VM [1] (library: Spectrum) was inactive: 0. The “dopaminergic neuron differentiation score” value in the test with ReNCell VM [2] (library: Spectrum) was inactive: 0.

For the compound `N#C/C(=C\c1c[nH]c2ccccc12)C(=O)c1ccc(O)c(O)c1` [Tyrphostin AG 808], in the test on ReNCell VM [1] (library: LOPAC), the neuronal differentiation score is inactive: 0. In the test on ReNCell VM [2] (library: LOPAC), the “dopaminergic neuron differentiation score” value was inactive: 0.

As for `CC=CC(=O)N(CC)c1ccccc1C`, the neuronal differentiation score with ReNCell VM [1] (library: Spectrum) is inactive: 0. For the same compound, the “dopaminergic neuron differentiation score” value in the test with ReNCell VM [2] (library: Spectrum) is inactive: 0.

Take `CCC1(C)OC(=O)N(C)C1=O` (centres undefined): the neuronal differentiation score with ReNCell VM [1] (library: Spectrum) is inactive: 0. Moreover, in the test with ReNCell VM [2] (library: Spectrum), the “dopaminergic neuron differentiation score” value is inactive: 0.

Turning to `C[C@]12C=CC(=O)C=C1CC[C@@H]1[C@@H]2C(=O)C[C@@]2(C)[C@H]1CC[C@]2(O)C(=O)CO`, the neuronal differentiation score in the test with ReNCell VM [1] (library: Spectrum) was inactive: 0. In addition, in the test on ReNCell VM [2] (library: Spectrum), the “dopaminergic neuron differentiation score” value was inactive: 0.

With `CC(C)=CCC/C(C)=C\CO`, the neuronal differentiation score in the test with ReNCell VM [1] (library: Spectrum) was inactive: 0. Moreover, in the test on ReNCell VM [2] (library: Spectrum), the “dopaminergic neuron differentiation score” value is inactive: 0.

As for `COC(=O)[C@H]1[C@H]2C[C@H]3c4[nH]c5ccccc5c4CCN3C[C@H]2CC[C@@H]1O`, the neuronal differentiation score in the test on ReNCell VM [1] (library: Spectrum) is inactive: 0. Further, the “dopaminergic neuron differentiation score” value in the test on ReNCell VM [2] (library: Spectrum) was inactive: 0.

For the compound `O=C(OCCOCCO)c1ccccc1Nc1cccc(C(F)(F)F)c1` [Etofenamate], in the test with ReNCell VM [1] (library: Prestwick), the neuronal differentiation score was inactive: 0. The “dopaminergic neuron differentiation score” value with ReNCell VM [2] (library: Prestwick) was inactive: 0.

In the case of `COC(=O)C[C@H]1C2(C)CC34OC5(C)O[C@@]6([C@H](OC)C(OC(=O)C(C)C)[C@]7(C)C(/C(=C(/OC)C(C)C)C(=O)O[C@H]7c7ccoc7)[C@@]6(O5)[C@H](OC)[C@@]3(OC)C2OC(C)=O)[C@]14C` (some centres undefined), the neuronal differentiation score in the test on ReNCell VM [1] (library: Spectrum) was inactive: 0. The “dopaminergic neuron differentiation score” value in the test with ReNCell VM [2] (library: Spectrum) is inactive: 0.

Consider `CCCCCC(=O)O[C@]1(C(C)=O)CC[C@H]2[C@@H]3CCC4=CC(=O)CC[C@]4(C)[C@H]3CC[C@@]21C`, for which the neuronal differentiation score in the test on ReNCell VM [1] (library: Spectrum) is active: 2. In the test on ReNCell VM [2] (library: Spectrum), the “dopaminergic neuron differentiation score” value is inactive: 0.

Take `CC1=C(C(=O)O)N2C(=O)[C@@H](NC(=O)[C@H](N)c3ccccc3)[C@H]2SC1`: in the test on ReNCell VM [1] (library: Spectrum), the neuronal differentiation score was inactive: 0. In addition, the “dopaminergic neuron differentiation score” value with ReNCell VM [2] (library: Spectrum) was inactive: 0.

As for `CC1(C)[C@H](C(=O)O)N2C(=O)C[C@H]2S1(=O)=O`, in the test on ReNCell VM [1] (library: Spectrum), the neuronal differentiation score is inactive: 0. Also, the “dopaminergic neuron differentiation score” value with ReNCell VM [2] (library: Spectrum) was inactive: 0.

In the case of `C[n+]1ccccc1/C=N/O`, the neuronal differentiation score with ReNCell VM [1] (library: Spectrum) is inactive: 0. The “dopaminergic neuron differentiation score” value in the test on ReNCell VM [2] (library: Spectrum) was inactive: 0.

Turning to `CCN[C@H]1CN(CCCOC)S(=O)(=O)c2sc(S(N)(=O)=O)cc21` [Brinzolamide], the neuronal differentiation score in the test with ReNCell VM [1] (library: Prestwick) is inactive: 0. Moreover, the “dopaminergic neuron differentiation score” value in the test on ReNCell VM [2] (library: Prestwick) was inactive: 0.

Turning to `C#C[C@]1(O)CC[C@H]2[C@@H]3CCc4cc(OC)ccc4[C@H]3CC[C@@]21C`, the neuronal differentiation score with ReNCell VM [1] (library: Spectrum) is inactive: 0. Further, the “dopaminergic neuron differentiation score” value with ReNCell VM [2] (library: Spectrum) was inactive: 0.

For the compound `N[C@@H](Cn1ccc(=O)n(Cc2ccccc2C(=O)O)c1=O)C(=O)O`, in the test with ReNCell VM [1] (library: Tocriscreen), the neuronal differentiation score was inactive: 0. Moreover, in the test on ReNCell VM [2] (library: Tocriscreen), the “dopaminergic neuron differentiation score” value is inactive: 0.

As to `O=C(CCCN1CCN(c2ccccn2)CC1)c1ccc(F)cc1` [Azaperone], the neuronal differentiation score in the test with ReNCell VM [1] (library: Prestwick) was inactive: 0. The “dopaminergic neuron differentiation score” value with ReNCell VM [2] (library: Prestwick) was inactive: 0.

Regarding `C[C@](N)(Cc1ccc(O)cc1)C(=O)O` [L-alpha-Methyl-p-tyrosine], in the test with ReNCell VM [1] (library: LOPAC), the neuronal differentiation score was inactive: 0. Also, in the test on ReNCell VM [2] (library: LOPAC), the “dopaminergic neuron differentiation score” value was inactive: 0.

As to `O=C1c2ccccc2C(=O)C1c1ccccc1` [Phenindione], the neuronal differentiation score with ReNCell VM [1] (library: Prestwick) was inactive: 0. Further, the “dopaminergic neuron differentiation score” value in the test on ReNCell VM [2] (library: Prestwick) was inactive: 0.

Take `O=C(/C=C/c1ccc(OCc2ccccc2)cc1OCc1ccccc1)c1ccc(OCc2ccccc2)cc1O` [4,2,4'-Tribenzyloxy-6'-hydroxychalcone]: the neuronal differentiation score with ReNCell VM [1] (library: Phytochemical) is inactive: 0. For the same compound, in the test on ReNCell VM [2] (library: Phytochemical), the “dopaminergic neuron differentiation score” value was inactive: 0.

Take `CC1=C(CC(=O)O)c2cc(F)ccc2/C1=C\c1ccc([S+](C)[O-])cc1` (centres undefined): in the test with ReNCell VM [1] (library: Spectrum), the neuronal differentiation score was inactive: 0. The “dopaminergic neuron differentiation score” value in the test with ReNCell VM [2] (library: Spectrum) was inactive: 0.

As for `O=C1NCN(c2ccccc2)C12CCN(CCCC(c1ccc(F)cc1)c1ccc(F)cc1)CC2` [Fluspirilen], the neuronal differentiation score in the test on ReNCell VM [1] (library: Prestwick) was inactive: 0. In addition, the “dopaminergic neuron differentiation score” value with ReNCell VM [2] (library: Prestwick) was inactive: 0.

Turning to `Nc1cc[nH]c(=O)n1` [Cytosine], the neuronal differentiation score with ReNCell VM [1] (library: Phytochemical) was inactive: 0. Also, the “dopaminergic neuron differentiation score” value with ReNCell VM [2] (library: Phytochemical) is inactive: 0.

For `COc1ccc(C[C@H](N)C(=O)N[C@H]2[C@@H](O)[C@H](n3cnc4c(N(C)C)ncnc43)O[C@@H]2CO)cc1`, in the test with ReNCell VM [1] (library: Spectrum), the neuronal differentiation score was inactive: 0. Further, the “dopaminergic neuron differentiation score” value in the test with ReNCell VM [2] (library: Spectrum) was inactive: 0.

As for `Nc1ncnc2c1ncn2[C@@H]1O[C@H](COP(=O)(O)OP(=O)(O)OP(=O)(O)OP(=O)(O)OC[C@@H]2O[C@H](n3cnc4c(N)ncnc43)C(O)[C@@H]2O)[C@H](O)C1O` (some centres undefined) [P1,P4-Di(adenosine-5')tetraphosphate triammonium], the neuronal differentiation score in the test on ReNCell VM [1] (library: LOPAC) is inactive: 0. Further, in the test with ReNCell VM [2] (library: LOPAC), the “dopaminergic neuron differentiation score” value was inactive: 0.

On to `O=c1oc(Cl)c(Cl)c2ccccc12` [3,4-Dichloroisocoumarin], for which the neuronal differentiation score in the test on ReNCell VM [1] (library: LOPAC) is inactive: -1. Further, the “dopaminergic neuron differentiation score” value in the test on ReNCell VM [2] (library: LOPAC) was inactive: 1.

Take `CNC(=C[N+](=O)[O-])NCCSCc1ccc(CN(C)C)o1`: the neuronal differentiation score with ReNCell VM [1] (library: Spectrum) is inactive: -1. Besides, the “dopaminergic neuron differentiation score” value in the test with ReNCell VM [2] (library: Spectrum) is inactive: 0.

These data come from the supplement of paper PMC4635364.
